# ± gives the standard deviation of the averaged measurements. Only a part is listed here, and it is no random draw. Most values lie at the level of the controls, where differences are scatter.
# Sequences of proteins named here, by UniProt entry; tags and fusion partners are left off. A change or cut given only in a name is not applied to a line headed by its entry.
# UniProt Q5U5X0: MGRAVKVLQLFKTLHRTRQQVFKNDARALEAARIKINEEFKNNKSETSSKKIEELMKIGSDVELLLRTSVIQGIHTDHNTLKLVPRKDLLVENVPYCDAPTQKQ
# UniProt Q9H6K1: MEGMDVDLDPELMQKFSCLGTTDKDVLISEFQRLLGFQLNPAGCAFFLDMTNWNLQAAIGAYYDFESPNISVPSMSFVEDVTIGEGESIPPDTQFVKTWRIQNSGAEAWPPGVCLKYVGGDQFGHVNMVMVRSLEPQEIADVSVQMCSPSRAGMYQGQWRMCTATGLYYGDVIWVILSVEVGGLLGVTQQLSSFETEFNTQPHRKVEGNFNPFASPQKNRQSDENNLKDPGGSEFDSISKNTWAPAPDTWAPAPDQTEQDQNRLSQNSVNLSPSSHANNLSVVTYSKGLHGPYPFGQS
# UniProt Q9NZJ6: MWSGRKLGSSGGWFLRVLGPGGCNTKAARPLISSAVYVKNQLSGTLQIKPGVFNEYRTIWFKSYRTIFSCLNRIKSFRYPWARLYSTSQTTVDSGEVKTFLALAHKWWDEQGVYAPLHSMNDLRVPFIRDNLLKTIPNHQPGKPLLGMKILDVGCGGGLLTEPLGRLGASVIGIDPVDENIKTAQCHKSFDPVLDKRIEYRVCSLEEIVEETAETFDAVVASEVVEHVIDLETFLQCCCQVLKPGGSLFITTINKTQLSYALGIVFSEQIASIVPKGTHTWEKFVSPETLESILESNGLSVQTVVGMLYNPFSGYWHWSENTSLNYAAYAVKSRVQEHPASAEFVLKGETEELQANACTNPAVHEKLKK
# UniProt Q53GQ0: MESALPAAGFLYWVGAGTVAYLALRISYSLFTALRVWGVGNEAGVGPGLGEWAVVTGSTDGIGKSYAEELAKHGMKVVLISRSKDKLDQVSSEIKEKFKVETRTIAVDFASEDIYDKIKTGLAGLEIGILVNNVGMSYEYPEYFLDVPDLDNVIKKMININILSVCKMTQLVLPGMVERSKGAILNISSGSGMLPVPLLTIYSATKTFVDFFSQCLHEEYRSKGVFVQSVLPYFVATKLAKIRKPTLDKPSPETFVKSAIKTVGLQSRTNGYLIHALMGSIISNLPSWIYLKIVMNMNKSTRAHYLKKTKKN
# UniProt Q562F6: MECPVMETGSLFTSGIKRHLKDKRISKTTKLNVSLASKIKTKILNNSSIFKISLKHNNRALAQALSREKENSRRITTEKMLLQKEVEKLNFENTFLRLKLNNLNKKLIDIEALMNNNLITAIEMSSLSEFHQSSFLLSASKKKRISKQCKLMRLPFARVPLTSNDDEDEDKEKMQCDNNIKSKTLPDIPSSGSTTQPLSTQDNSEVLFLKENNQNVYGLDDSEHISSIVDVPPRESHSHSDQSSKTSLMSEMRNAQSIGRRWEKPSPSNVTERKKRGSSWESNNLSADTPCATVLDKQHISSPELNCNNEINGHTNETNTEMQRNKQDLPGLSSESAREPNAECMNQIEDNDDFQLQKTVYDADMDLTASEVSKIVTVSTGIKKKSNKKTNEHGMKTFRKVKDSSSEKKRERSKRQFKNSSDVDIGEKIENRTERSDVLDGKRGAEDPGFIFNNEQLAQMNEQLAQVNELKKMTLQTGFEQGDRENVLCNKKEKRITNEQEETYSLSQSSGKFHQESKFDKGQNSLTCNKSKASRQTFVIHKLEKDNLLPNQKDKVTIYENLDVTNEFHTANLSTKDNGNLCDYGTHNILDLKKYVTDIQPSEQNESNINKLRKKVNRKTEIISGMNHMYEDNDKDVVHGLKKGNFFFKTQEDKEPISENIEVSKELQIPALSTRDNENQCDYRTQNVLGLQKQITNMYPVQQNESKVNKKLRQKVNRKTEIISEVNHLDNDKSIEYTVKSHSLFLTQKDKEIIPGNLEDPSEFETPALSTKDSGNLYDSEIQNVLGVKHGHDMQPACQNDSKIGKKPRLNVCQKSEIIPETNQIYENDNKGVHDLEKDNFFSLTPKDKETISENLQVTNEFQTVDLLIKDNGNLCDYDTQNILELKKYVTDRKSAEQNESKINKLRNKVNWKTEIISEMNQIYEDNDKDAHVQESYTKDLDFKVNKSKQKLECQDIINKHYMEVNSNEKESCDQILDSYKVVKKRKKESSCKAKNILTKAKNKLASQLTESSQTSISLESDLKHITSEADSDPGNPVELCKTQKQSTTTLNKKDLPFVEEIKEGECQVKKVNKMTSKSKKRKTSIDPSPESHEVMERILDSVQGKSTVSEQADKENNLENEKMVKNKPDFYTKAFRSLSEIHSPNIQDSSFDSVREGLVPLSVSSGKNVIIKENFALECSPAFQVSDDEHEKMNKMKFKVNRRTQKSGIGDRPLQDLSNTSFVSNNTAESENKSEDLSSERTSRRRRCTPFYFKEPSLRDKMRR
# UniProt Q9NSU2: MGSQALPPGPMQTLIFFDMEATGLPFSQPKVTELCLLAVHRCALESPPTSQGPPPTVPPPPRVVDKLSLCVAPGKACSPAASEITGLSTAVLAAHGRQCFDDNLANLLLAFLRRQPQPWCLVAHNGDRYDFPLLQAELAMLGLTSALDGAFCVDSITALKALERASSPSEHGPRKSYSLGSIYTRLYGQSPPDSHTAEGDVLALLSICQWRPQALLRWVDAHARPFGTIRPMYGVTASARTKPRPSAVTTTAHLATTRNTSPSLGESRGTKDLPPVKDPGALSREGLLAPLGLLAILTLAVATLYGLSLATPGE
# UniProt Q53TN4: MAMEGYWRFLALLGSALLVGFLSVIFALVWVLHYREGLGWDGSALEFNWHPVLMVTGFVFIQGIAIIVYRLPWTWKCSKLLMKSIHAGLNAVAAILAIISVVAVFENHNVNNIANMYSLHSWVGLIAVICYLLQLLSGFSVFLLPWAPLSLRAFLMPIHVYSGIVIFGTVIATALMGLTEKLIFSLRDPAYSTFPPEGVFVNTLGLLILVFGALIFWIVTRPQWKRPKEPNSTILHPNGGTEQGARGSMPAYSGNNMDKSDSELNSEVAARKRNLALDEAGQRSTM
# UniProt Q53GS7: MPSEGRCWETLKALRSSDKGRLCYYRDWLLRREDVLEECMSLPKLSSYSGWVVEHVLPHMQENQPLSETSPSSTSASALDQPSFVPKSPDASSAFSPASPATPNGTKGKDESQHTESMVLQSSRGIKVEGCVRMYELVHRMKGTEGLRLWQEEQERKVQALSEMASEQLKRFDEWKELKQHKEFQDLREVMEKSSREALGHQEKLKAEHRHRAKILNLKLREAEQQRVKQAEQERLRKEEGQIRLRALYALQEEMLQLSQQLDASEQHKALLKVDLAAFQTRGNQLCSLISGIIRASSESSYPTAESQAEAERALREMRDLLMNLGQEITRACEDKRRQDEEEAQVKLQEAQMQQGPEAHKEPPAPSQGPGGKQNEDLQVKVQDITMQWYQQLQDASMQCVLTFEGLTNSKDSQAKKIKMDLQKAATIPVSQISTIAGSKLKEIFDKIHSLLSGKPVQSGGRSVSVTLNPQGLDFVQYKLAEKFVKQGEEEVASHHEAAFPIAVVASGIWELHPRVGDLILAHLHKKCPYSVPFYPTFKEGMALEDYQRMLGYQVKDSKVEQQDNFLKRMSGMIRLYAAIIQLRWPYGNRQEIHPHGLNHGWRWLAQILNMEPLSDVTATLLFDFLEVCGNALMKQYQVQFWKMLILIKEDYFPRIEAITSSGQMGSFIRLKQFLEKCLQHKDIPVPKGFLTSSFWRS
# UniProt Q5T200: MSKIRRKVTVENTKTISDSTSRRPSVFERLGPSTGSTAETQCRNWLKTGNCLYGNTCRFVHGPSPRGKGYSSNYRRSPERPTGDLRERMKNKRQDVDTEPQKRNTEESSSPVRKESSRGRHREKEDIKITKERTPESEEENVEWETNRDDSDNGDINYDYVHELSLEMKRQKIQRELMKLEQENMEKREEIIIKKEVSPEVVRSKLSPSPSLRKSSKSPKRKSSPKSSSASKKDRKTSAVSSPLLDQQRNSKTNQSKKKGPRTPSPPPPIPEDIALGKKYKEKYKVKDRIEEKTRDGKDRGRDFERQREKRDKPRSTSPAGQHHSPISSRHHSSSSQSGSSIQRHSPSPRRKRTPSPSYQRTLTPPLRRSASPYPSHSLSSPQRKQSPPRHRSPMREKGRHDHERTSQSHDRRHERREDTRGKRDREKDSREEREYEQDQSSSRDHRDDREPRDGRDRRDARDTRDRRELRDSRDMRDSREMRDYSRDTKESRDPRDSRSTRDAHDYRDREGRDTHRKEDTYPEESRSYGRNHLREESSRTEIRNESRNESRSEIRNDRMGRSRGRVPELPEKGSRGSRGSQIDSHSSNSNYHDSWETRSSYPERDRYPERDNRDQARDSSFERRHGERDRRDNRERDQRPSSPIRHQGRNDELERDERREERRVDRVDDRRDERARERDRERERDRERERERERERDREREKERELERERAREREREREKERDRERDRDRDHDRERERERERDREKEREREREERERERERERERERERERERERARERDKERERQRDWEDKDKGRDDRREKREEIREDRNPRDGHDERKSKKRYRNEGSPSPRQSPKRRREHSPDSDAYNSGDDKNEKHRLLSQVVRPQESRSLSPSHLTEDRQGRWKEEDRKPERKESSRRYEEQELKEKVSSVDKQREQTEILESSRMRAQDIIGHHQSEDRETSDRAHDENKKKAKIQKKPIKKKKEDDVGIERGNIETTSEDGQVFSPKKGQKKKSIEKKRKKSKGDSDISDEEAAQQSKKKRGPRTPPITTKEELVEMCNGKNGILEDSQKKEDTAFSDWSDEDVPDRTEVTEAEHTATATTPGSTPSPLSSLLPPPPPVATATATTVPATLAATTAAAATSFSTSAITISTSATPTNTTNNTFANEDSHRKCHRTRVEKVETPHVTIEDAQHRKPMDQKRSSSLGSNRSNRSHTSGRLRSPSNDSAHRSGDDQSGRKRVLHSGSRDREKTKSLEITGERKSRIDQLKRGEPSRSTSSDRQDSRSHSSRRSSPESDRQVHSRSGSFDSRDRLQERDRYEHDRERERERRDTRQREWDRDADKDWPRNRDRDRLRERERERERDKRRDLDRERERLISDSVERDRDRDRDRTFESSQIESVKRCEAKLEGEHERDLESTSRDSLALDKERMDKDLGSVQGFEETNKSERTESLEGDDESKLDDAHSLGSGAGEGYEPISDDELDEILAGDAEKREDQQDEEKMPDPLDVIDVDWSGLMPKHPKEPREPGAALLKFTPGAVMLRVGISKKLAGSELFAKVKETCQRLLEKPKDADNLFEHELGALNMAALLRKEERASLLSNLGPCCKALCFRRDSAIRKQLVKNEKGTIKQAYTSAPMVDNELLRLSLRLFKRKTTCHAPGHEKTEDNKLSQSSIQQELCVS
# UniProt Q6NW34: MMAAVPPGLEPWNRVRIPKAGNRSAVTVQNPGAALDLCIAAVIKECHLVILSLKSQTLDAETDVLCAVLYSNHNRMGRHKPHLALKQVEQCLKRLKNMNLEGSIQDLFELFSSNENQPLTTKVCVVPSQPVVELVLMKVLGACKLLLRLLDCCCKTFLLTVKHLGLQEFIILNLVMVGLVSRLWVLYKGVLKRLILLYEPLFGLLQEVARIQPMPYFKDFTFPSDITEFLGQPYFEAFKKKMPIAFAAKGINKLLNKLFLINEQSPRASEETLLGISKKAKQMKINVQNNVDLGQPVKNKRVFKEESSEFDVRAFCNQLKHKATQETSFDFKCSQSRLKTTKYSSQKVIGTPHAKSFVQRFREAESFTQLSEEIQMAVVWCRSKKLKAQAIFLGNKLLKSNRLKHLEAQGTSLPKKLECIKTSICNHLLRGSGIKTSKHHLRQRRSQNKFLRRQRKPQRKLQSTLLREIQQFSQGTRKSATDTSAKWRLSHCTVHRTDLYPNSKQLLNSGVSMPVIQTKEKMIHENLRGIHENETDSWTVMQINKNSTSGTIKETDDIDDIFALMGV
# UniProt Q6I9Y2: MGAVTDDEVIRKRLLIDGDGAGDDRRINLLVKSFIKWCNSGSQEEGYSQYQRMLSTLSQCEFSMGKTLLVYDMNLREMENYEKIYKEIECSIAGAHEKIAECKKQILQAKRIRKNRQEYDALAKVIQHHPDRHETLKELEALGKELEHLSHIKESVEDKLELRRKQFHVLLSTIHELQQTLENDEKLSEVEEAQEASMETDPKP
# UniProt Q5BKX5: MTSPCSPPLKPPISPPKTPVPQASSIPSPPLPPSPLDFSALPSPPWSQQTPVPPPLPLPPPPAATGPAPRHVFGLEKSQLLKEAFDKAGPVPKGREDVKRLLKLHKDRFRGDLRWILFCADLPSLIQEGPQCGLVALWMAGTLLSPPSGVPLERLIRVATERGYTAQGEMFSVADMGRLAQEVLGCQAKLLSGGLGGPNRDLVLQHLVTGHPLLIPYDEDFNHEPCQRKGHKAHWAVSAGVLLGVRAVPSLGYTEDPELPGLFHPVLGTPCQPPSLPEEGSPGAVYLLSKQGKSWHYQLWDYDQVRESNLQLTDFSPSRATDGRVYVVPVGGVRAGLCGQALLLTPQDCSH
# Compound: Nc1ncnc2c1ncn2[C@@H]1O[C@H](COP(=O)(O)OP(=O)(O)OP(=O)(O)O)[C@@H](O)[C@H]1O [adenosine triphosphate]
# Assay: NP40-soluble protein abundance relative to vehicle (solubility fold change) (ratio); higher = more soluble protein in presence of ATP
# Summary of the method: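 Data come from three independent experiments in which Dounce-homogenised Jurkat crude lysate was treated at eight concentrations from 0.1 to 10 mM. Treatment ran 10 min at room temperature and then 3 min at 37 °C, after which 0.8% NP40 and benzonase were added for 60 min at 4 °C before ultracentrifugation. The supernatant underwent TMT labelling and LC-MS/MS, and vsn-normalised intensities were expressed as fold change against the detergent-processed vehicle in each replicate.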
target,measurement,setting,value
UniProt Q58EX7 and related entries,NP40-soluble protein abundance,concentration: 0.1mM,0.895 ± 0.066
same,NP40-soluble protein abundance,concentration: 0.5mM,1.02 ± 0.083
UniProt Q5VYS8 and related entries,NP40-soluble protein abundance,concentration: 0.1mM,1.06 ± 0.014
same,NP40-soluble protein abundance,concentration: 0.5mM,1.06 ± 0.039
PITRM1 (UniProt Q5JRX3),NP40-soluble protein abundance,concentration: 0.1mM,1.03 ± 0.056
same,NP40-soluble protein abundance,concentration: 0.5mM,1.04 ± 0.069
LYRM7 (UniProt Q5U5X0),NP40-soluble protein abundance,concentration: 0.1mM,0.92 ± 0.18
same,NP40-soluble protein abundance,concentration: 0.5mM,0.852 ± 0.22
TP53I3 (UniProt Q53FA7),NP40-soluble protein abundance,concentration: 0.1mM,0.978 ± 0.015
same,NP40-soluble protein abundance,concentration: 0.5mM,0.992 ± 0.036
Q5JY65 and related entries (UniProt Q9BZJ0),NP40-soluble protein abundance,concentration: 0.1mM,1.04 ± 0.033
same,NP40-soluble protein abundance,concentration: 0.5mM,1.06 ± 0.032
Q5TH58 and related entries (UniProt Q9H6K1),NP40-soluble protein abundance,concentration: 0.1mM,1.03 ± 0.061
same,NP40-soluble protein abundance,concentration: 0.5mM,1.03 ± 0.068
Q5T063 and related entries (UniProt Q9NZJ6),NP40-soluble protein abundance,concentration: 0.1mM,0.966 ± 0.012
same,NP40-soluble protein abundance,concentration: 0.5mM,1.08 ± 0.074
HSD17B12 (UniProt Q53GQ0),NP40-soluble protein abundance,concentration: 0.1mM,0.996 ± 0.037
same,NP40-soluble protein abundance,concentration: 0.5mM,1 ± 0.024
UniProt Q5JTD0 and related entries,NP40-soluble protein abundance,concentration: 0.1mM,0.986 ± 0.026
same,NP40-soluble protein abundance,concentration: 0.5mM,0.954 ± 0.014
UniProt Q562F6 and related entries,NP40-soluble protein abundance,concentration: 0.1mM,0.969 ± 0.073
same,NP40-soluble protein abundance,concentration: 0.5mM,1.03 ± 0.046
UniProt Q5R372 and related entries,NP40-soluble protein abundance,concentration: 0.1mM,1.03 ± 0.014
same,NP40-soluble protein abundance,concentration: 0.5mM,1.02 ± 0.027
ZNF318 (UniProt Q5VUA4),NP40-soluble protein abundance,concentration: 0.1mM,0.975 ± 0.11
same,NP40-soluble protein abundance,concentration: 0.5mM,1.04 ± 0.09
Q5TZT0 and related entries (UniProt Q9NSU2),NP40-soluble protein abundance,concentration: 0.1mM,0.991 ± 0.028
same,NP40-soluble protein abundance,concentration: 0.5mM,0.93 ± 0.081
UniProt Q5VZE5,NP40-soluble protein abundance,concentration: 0.1mM,1.04 ± 0.096
same,NP40-soluble protein abundance,concentration: 0.5mM,1.06 ± 0.059
RARS2 (UniProt Q5T160),NP40-soluble protein abundance,concentration: 0.1mM,1.05 ± 0.065
same,NP40-soluble protein abundance,concentration: 0.5mM,0.995 ± 0.062
UniProt Q6F5E8 and related entries,NP40-soluble protein abundance,concentration: 0.1mM,0.993 ± 0.04
same,NP40-soluble protein abundance,concentration: 0.5mM,1.01 ± 0.048
ARHGAP17 (UniProt Q68EM7),NP40-soluble protein abundance,concentration: 0.1mM,1.02 ± 0.032
same,NP40-soluble protein abundance,concentration: 0.5mM,1.02 ± 0.045
UniProt Q53TN4 and related entries,NP40-soluble protein abundance,concentration: 0.1mM,1.04 ± 0.086
same,NP40-soluble protein abundance,concentration: 0.5mM,1.04 ± 0.094
SIGIRR (UniProt Q6IA17),NP40-soluble protein abundance,concentration: 0.1mM,0.994 ± 0.016
same,NP40-soluble protein abundance,concentration: 0.5mM,1.02 ± 0.06
UniProt Q6P499,NP40-soluble protein abundance,concentration: 0.1mM,0.951 ± 0.059
same,NP40-soluble protein abundance,concentration: 0.5mM,1.01 ± 0.06
UniProt Q6NUQ4 and related entries,NP40-soluble protein abundance,concentration: 0.1mM,0.993 ± 0.024
same,NP40-soluble protein abundance,concentration: 0.5mM,1.03 ± 0.022
UniProt Q53H96 and related entries,NP40-soluble protein abundance,concentration: 0.1mM,1.01 ± 0.07
same,NP40-soluble protein abundance,concentration: 0.5mM,0.999 ± 0.11
same,NP40-soluble protein abundance,concentration: 1mM,1.04 ± 0.076
same,NP40-soluble protein abundance,concentration: 2mM,1.06 ± 0.1
same,NP40-soluble protein abundance,concentration: 4mM,1.09 ± 0.08
same,NP40-soluble protein abundance,concentration: 6mM,1.01 ± 0.14
same,NP40-soluble protein abundance,concentration: 8mM,1.03 ± 0.11
same,NP40-soluble protein abundance,concentration: 10mM,1.03 ± 0.1
UniProt Q6P1J9,NP40-soluble protein abundance,concentration: 0.1mM,1.01 ± 0.047
same,NP40-soluble protein abundance,concentration: 0.5mM,1.01 ± 0.043
UniProt Q66K14 and related entries,NP40-soluble protein abundance,concentration: 0.1mM,1.03 ± 0.045
same,NP40-soluble protein abundance,concentration: 0.5mM,1.02 ± 0.029
RNF20 (UniProt Q5VTR2),NP40-soluble protein abundance,concentration: 0.1mM,0.994 ± 0.015
same,NP40-soluble protein abundance,concentration: 0.5mM,1 ± 0.054
same,NP40-soluble protein abundance,concentration: 1mM,0.962 ± 0.05
same,NP40-soluble protein abundance,concentration: 2mM,0.961 ± 0.02
same,NP40-soluble protein abundance,concentration: 4mM,0.935 ± 0.024
same,NP40-soluble protein abundance,concentration: 6mM,0.997 ± 0.041
same,NP40-soluble protein abundance,concentration: 8mM,0.935 ± 0.019
same,NP40-soluble protein abundance,concentration: 10mM,0.933 ± 0.017
UniProt Q641Q2 and related entries,NP40-soluble protein abundance,concentration: 0.1mM,1.02 ± 0.032
same,NP40-soluble protein abundance,concentration: 0.5mM,0.983 ± 0.044
same,NP40-soluble protein abundance,concentration: 1mM,0.968 ± 0.057
same,NP40-soluble protein abundance,concentration: 2mM,0.9815 ± 0.0096
same,NP40-soluble protein abundance,concentration: 4mM,0.938 ± 0.033
same,NP40-soluble protein abundance,concentration: 6mM,0.94 ± 0.094
same,NP40-soluble protein abundance,concentration: 8mM,0.895 ± 0.05
same,NP40-soluble protein abundance,concentration: 10mM,0.896 ± 0.047
RINT1 (UniProt Q6NUQ1),NP40-soluble protein abundance,concentration: 0.1mM,1.01 ± 0.097
same,NP40-soluble protein abundance,concentration: 0.5mM,1.03 ± 0.085
UniProt Q6IN85,NP40-soluble protein abundance,concentration: 0.1mM,0.994 ± 0.055
same,NP40-soluble protein abundance,concentration: 0.5mM,1.03 ± 0.055
same,NP40-soluble protein abundance,concentration: 1mM,1.03 ± 0.066
same,NP40-soluble protein abundance,concentration: 2mM,0.979 ± 0.042
same,NP40-soluble protein abundance,concentration: 4mM,0.946 ± 0.041
same,NP40-soluble protein abundance,concentration: 6mM,0.991 ± 0.048
same,NP40-soluble protein abundance,concentration: 8mM,0.956 ± 0.047
same,NP40-soluble protein abundance,concentration: 10mM,0.935 ± 0.08
UniProt Q53GS7 and related entries,NP40-soluble protein abundance,concentration: 0.1mM,1.13 ± 0.14
same,NP40-soluble protein abundance,concentration: 0.5mM,1.12 ± 0.06
same,NP40-soluble protein abundance,concentration: 1mM,1.18 ± 0.079
same,NP40-soluble protein abundance,concentration: 2mM,1.19 ± 0.12
same,NP40-soluble protein abundance,concentration: 4mM,1.39 ± 0.24
same,NP40-soluble protein abundance,concentration: 6mM,1.54 ± 0.24
same,NP40-soluble protein abundance,concentration: 8mM,1.52 ± 0.2
same,NP40-soluble protein abundance,concentration: 10mM,1.71 ± 0.23
UniProt Q5T200 and related entries,NP40-soluble protein abundance,concentration: 0.1mM,1.01 ± 0.046
same,NP40-soluble protein abundance,concentration: 0.5mM,1.03 ± 0.051
same,NP40-soluble protein abundance,concentration: 1mM,1.04 ± 0.057
same,NP40-soluble protein abundance,concentration: 2mM,1.1 ± 0.056
same,NP40-soluble protein abundance,concentration: 4mM,1.15 ± 0.077
same,NP40-soluble protein abundance,concentration: 6mM,1.22 ± 0.094
same,NP40-soluble protein abundance,concentration: 8mM,1.21 ± 0.086
same,NP40-soluble protein abundance,concentration: 10mM,1.29 ± 0.093
Q5QPA5 and related entries (UniProt Q9NVS2),NP40-soluble protein abundance,concentration: 0.1mM,0.951 ± 0.18
same,NP40-soluble protein abundance,concentration: 0.5mM,0.988 ± 0.16
same,NP40-soluble protein abundance,concentration: 1mM,1.07 ± 0.12
same,NP40-soluble protein abundance,concentration: 2mM,0.926 ± 0.14
same,NP40-soluble protein abundance,concentration: 4mM,0.879 ± 0.17
same,NP40-soluble protein abundance,concentration: 6mM,0.946 ± 0.39
same,NP40-soluble protein abundance,concentration: 8mM,0.887 ± 0.24
same,NP40-soluble protein abundance,concentration: 10mM,0.818 ± 0.2
UniProt Q58A45 and related entries,NP40-soluble protein abundance,concentration: 0.1mM,0.94 ± 0.013
same,NP40-soluble protein abundance,concentration: 0.5mM,1.06 ± 0.034
UniProt Q6NW34 and related entries,NP40-soluble protein abundance,concentration: 0.1mM,0.881 ± 0.13
same,NP40-soluble protein abundance,concentration: 0.5mM,0.831 ± 0.1
same,NP40-soluble protein abundance,concentration: 1mM,0.863 ± 0.078
same,NP40-soluble protein abundance,concentration: 2mM,0.831 ± 0.11
same,NP40-soluble protein abundance,concentration: 4mM,0.792 ± 0.15
same,NP40-soluble protein abundance,concentration: 6mM,0.892 ± 0.11
same,NP40-soluble protein abundance,concentration: 8mM,0.84 ± 0.14
same,NP40-soluble protein abundance,concentration: 10mM,0.785 ± 0.21
RPL7L1 (UniProt Q6DKI1),NP40-soluble protein abundance,concentration: 0.1mM,0.997 ± 0.062
same,NP40-soluble protein abundance,concentration: 0.5mM,0.964 ± 0.032
SNX30 (UniProt Q5VWJ9),NP40-soluble protein abundance,concentration: 0.1mM,1.03 ± 0.049
same,NP40-soluble protein abundance,concentration: 0.5mM,0.942 ± 0.012
TTC27 (UniProt Q6P3X3),NP40-soluble protein abundance,concentration: 0.1mM,1.04 ± 0.061
same,NP40-soluble protein abundance,concentration: 0.5mM,1.03 ± 0.054
ZC3H12A (UniProt Q5D1E8),NP40-soluble protein abundance,concentration: 0.1mM,1.08 ± 0.12
same,NP40-soluble protein abundance,concentration: 0.5mM,1.01 ± 0.038
same,NP40-soluble protein abundance,concentration: 1mM,0.982 ± 0.088
same,NP40-soluble protein abundance,concentration: 2mM,1.05 ± 0.089
same,NP40-soluble protein abundance,concentration: 4mM,0.988 ± 0.11
same,NP40-soluble protein abundance,concentration: 6mM,1.02 ± 0.085
same,NP40-soluble protein abundance,concentration: 8mM,1.02 ± 0.084
same,NP40-soluble protein abundance,concentration: 10mM,0.943 ± 0.11
UniProt Q5T280,NP40-soluble protein abundance,concentration: 0.1mM,0.958 ± 0.062
same,NP40-soluble protein abundance,concentration: 0.5mM,1.06 ± 0.035
same,NP40-soluble protein abundance,concentration: 1mM,1.03 ± 0.085
same,NP40-soluble protein abundance,concentration: 2mM,1.08 ± 0.077
same,NP40-soluble protein abundance,concentration: 4mM,1.23 ± 0.12
same,NP40-soluble protein abundance,concentration: 6mM,1.47 ± 0.17
same,NP40-soluble protein abundance,concentration: 8mM,1.52 ± 0.21
same,NP40-soluble protein abundance,concentration: 10mM,1.83 ± 0.22
THOC7 (UniProt Q6I9Y2),NP40-soluble protein abundance,concentration: 0.1mM,1.01 ± 0.091
same,NP40-soluble protein abundance,concentration: 0.5mM,1.22 ± 0.1
same,NP40-soluble protein abundance,concentration: 1mM,1.4 ± 0.11
same,NP40-soluble protein abundance,concentration: 2mM,1.5 ± 0.15
same,NP40-soluble protein abundance,concentration: 4mM,1.73 ± 0.19
same,NP40-soluble protein abundance,concentration: 6mM,1.95 ± 0.38
same,NP40-soluble protein abundance,concentration: 8mM,2.12 ± 0.2
same,NP40-soluble protein abundance,concentration: 10mM,2.03 ± 0.26
UniProt Q52LJ0-2,NP40-soluble protein abundance,concentration: 0.1mM,0.992 ± 0.036
same,NP40-soluble protein abundance,concentration: 0.5mM,0.957 ± 0.017
LMBRD2 (UniProt Q68DH5),NP40-soluble protein abundance,concentration: 0.1mM,1.02 ± 0.098
same,NP40-soluble protein abundance,concentration: 0.5mM,1.05 ± 0.064
C19orf54 (UniProt Q5BKX5),NP40-soluble protein abundance,concentration: 0.1mM,1 ± 0.081
same,NP40-soluble protein abundance,concentration: 0.5mM,1 ± 0.082
TTC19 (UniProt Q6DKK2),NP40-soluble protein abundance,concentration: 0.1mM,0.929 ± 0.097
same,NP40-soluble protein abundance,concentration: 0.5mM,0.869 ± 0.11
same,NP40-soluble protein abundance,concentration: 1mM,0.971 ± 0.078
same,NP40-soluble protein abundance,concentration: 2mM,0.922 ± 0.037
same,NP40-soluble protein abundance,concentration: 4mM,0.973 ± 0.043
same,NP40-soluble protein abundance,concentration: 6mM,0.923 ± 0.04
same,NP40-soluble protein abundance,concentration: 8mM,0.985 ± 0.038
same,NP40-soluble protein abundance,concentration: 10mM,0.865 ± 0.094

# Quoted from above (five entries):
target,measurement,setting,value
UniProt Q6NW34 and related entries,NP40-soluble protein abundance,concentration: 8mM,0.84 ± 0.14
same,NP40-soluble protein abundance,concentration: 10mM,0.785 ± 0.21
RPL7L1 (UniProt Q6DKI1),NP40-soluble protein abundance,concentration: 0.1mM,0.997 ± 0.062
same,NP40-soluble protein abundance,concentration: 0.5mM,0.964 ± 0.032
SNX30 (UniProt Q5VWJ9),NP40-soluble protein abundance,concentration: 0.1mM,1.03 ± 0.049

# Reprinted at random: 5 entries already listed, in no set order.
target,measurement,setting,value
RNF20 (UniProt Q5VTR2),NP40-soluble protein abundance,concentration: 0.5mM,1 ± 0.054
Q5JY65 and related entries (UniProt Q9BZJ0),NP40-soluble protein abundance,concentration: 0.1mM,1.04 ± 0.033
ZC3H12A (UniProt Q5D1E8),NP40-soluble protein abundance,concentration: 0.1mM,1.08 ± 0.12
UniProt Q5T200 and related entries,NP40-soluble protein abundance,concentration: 0.1mM,1.01 ± 0.046
same,NP40-soluble protein abundance,concentration: 6mM,1.22 ± 0.094

# In a second layout: entries from further up.
target	measurement	setting	value
UniProt Q6P499	NP40-soluble protein abundance	concentration: 0.5mM	1.01 ± 0.06
UniProt Q6NUQ4 and related entries	NP40-soluble protein abundance	concentration: 0.1mM	0.993 ± 0.024
